Paper PMC4193777 (PLoS ONE, 2014)
These are yes or no findings as the source states them, for the method shown. Some results given as binding are weak or reduced against the parent protein; the word gives no strength.

By UniProt entry, the sequences of proteins in these tests, tags left out.
UniProt P25090: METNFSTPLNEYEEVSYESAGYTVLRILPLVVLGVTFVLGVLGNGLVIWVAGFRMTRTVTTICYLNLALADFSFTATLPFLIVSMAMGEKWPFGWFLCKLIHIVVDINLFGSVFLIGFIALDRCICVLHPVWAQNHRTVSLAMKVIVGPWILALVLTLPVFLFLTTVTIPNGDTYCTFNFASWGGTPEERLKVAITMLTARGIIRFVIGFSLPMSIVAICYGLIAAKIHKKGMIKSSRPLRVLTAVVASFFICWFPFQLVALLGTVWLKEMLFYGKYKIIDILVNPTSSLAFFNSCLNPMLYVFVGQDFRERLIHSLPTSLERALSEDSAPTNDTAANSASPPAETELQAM

Molecular target: formyl peptide receptor 2 (FPR2) (human (endogenous in neutrophils)) (UniProt P25090)
Test: flow cytometry on cells; Cy5-WKYMVM (1 nM) incubated with human neutrophils on ice for 1 or 2 hours, without or with an excess of non-labeled WKYMVM (100 nM) or F2Pal10 (1 µM); only the binder purified

binding: binds
B1: F2Pal10 pepducin (peptide)
peptide: KIHKKGMIKS
modifications: N-terminal palmitoylation
